PubChem BioAssay AID686938, Drosophila RNAi Screening Center | 2013

Test: 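Looking for CRAC channel components and the factors controlling them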 (primary screen)
Cell system: Drosophila S2R+ cells
Reagent: long dsRNA against Drosophila genes, about 0.25 µg dsRNA per well, roughly 10,000 cells
Duration: 5 days of knock-down before the calcium assay
Challenge: thapsigargin (SERCA pump blocker) to empty calcium stores; entry signal taken 4 min after adding it
Detection: 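Per-well fluo-4 fluorescence in two replicates, unnormalised, measured in resting cells and 4 min after store depletion by the SERCA blocker thapsigargin; ratio of the two present in few wells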
Scale: calcium entry signal: higher = stronger calcium signal after store depletion; resting calcium signal: higher = higher resting calcium signal
Rule for the call: 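Hit if the duplicate-averaged plate z-score for entry over resting signal is under −3; wells with weak total dye signal (Fmax z < −2) or more than 5 off-targets removed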
Calls: active = strongly reduced calcium entry; inactive = no strong reduction
The deposit covers about 23,000 reagents; shown is an unselected part of those with a known target gene and a result. Of all reagents, 75 (0.33%) are marked active. 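Raw plate signals without normalisation; calls rest on plate z-scores that were not deposited; ratio present for only 364 wells.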 Names joined by + are all predicted targets of the reagent. The record does not give: the dose of the treatment.

no.	target	dsRNA	calcium entry signal, replicate 1 (fluorescence units)	calcium entry signal, replicate 2 (fluorescence units)	resting calcium signal, replicate 1 (fluorescence units)	resting calcium signal, replicate 2 (fluorescence units)	Call
1	CG5334	DRSC19941	3.18e7	3.19e7	1.73e7	1.55e7	inactive
2	CG6565	DRSC02970	4.35e7		2.24e7		inactive
3	CG9010	DRSC07320	3.80e7	3.65e7	1.76e7	1.82e7	inactive
4	Tret1-1 (Trehalose transporter 1-1)	DRSC07046	3.14e7	3.57e7	1.58e7	1.66e7	inactive
5	Tret1-1 (Trehalose transporter 1-1)	DRSC07048	2.93e7	3.75e7	1.57e7	1.77e7	inactive
6	Pdh (Photoreceptor dehydrogenase)	DRSC11249	4.29e7	5.24e7	2.04e7	3.53e7	inactive
7	FASN1 (Fatty acid synthase 1)	DRSC00268	2.33e7		1.83e7		inactive
8	CG12974	DRSC11684	1.90e7	3.24e7	1.01e7	1.53e7	inactive
9	Hr83 (Hormone receptor 83)	DRSC12521	3.10e7	2.69e7	1.60e7	1.39e7	inactive
10	CG31103	DRSC22324	3.45e7	4.77e7	1.61e7	2.75e7	inactive
11	CG14205	DRSC19560	3.47e7	4.60e7	1.83e7	1.91e7	inactive
12	Vm26Ac (Vitelline membrane 26Aac)	DRSC02329	3.43e7	3.91e7	1.72e7	1.71e7	inactive
13	Tsp66E (Tetraspanin 66E)	DRSC09683	3.28e7	4.90e7	1.64e7	2.05e7	inactive
14	CG15711	DRSC06582	5.47e7	4.35e7	2.24e7	2.16e7	inactive
15	CG10208	DRSC14211	4.99e7	3.62e7	2.19e7	1.65e7	inactive
16	Cpr65Ax2 + Cpr65Ax1	DRSC10341	2.84e7	4.62e7	1.35e7	1.92e7	inactive
17	Cpr65Ax2 + Cpr65Ax1	DRSC10344	2.79e7	4.32e7	1.46e7	1.76e7	inactive
18	MFS14 (Major Facilitator Superfamily Transporter 14)	DRSC06524	4.34e7	3.27e7	1.93e7	1.59e7	inactive
19	CG10126	DRSC14191	3.53e7	4.78e7	1.57e7	2.10e7	inactive
20	mld (molting defective)	DRSC13681	4.28e7	4.82e7	2.05e7	2.47e7	inactive
21	mld (molting defective)	DRSC14622	4.84e7	4.21e7	2.29e7	1.95e7	inactive
22	nonA (no on or off transient A)	DRSC20357	2.46e7	1.98e7	1.30e7	1.11e7	inactive
23	Obp50c + Obp50b	DRSC05482	5.07e7	4.82e7	2.67e7	1.99e7	inactive
24	Drsl2 (Drosomycin-like 2)	DRSC08160	3.22e7	3.27e7	1.69e7	1.52e7	inactive
25	CG18599	DRSC15357	4.60e7	4.12e7	4.53e7	1.97e7	inactive
26	CG18599	DRSC22585	2.03e7	3.82e7	1.23e7	2.10e7	inactive
27	CG18599	DRSC23121	4.04e7	4.04e7	1.85e7	1.95e7	inactive
28	CG43188	DRSC05260	3.32e7	5.19e7	1.68e7	2.13e7	inactive
29	CG15549	DRSC15087	4.08e7	6.30e7	2.07e7	2.65e7	inactive
30	CG1463	DRSC19603	3.95e7	3.84e7	1.74e7	1.77e7	inactive
31	CG30268	DRSC21983	1.99e7	3.83e7	1.00e7	1.93e7	inactive
32	CG6071	DRSC10579	2.17e7	2.58e7	1.12e7	1.25e7	inactive
33	Cyp313a1 (Cytochrome P450 313a1)	DRSC16624	2.43e7	4.21e7	1.21e7	6.07e7	inactive
34	Agpat2 (1-Acylglycerol-3-phosphate O-acyltransferase 2)	DRSC03532	4.62e7		2.34e7		inactive
35	RpS11 (Ribosomal protein S11)	DRSC07289	1.36e7	2.59e7	8.40e6	1.29e7	inactive
36	RpS11 (Ribosomal protein S11)	DRSC22700	1.48e7	2.09e7	9.94e6	1.30e7	inactive
37	CG10713	DRSC09786	3.64e7	4.20e7	2.03e7	1.99e7	inactive
38	BtbVII (BTB-protein-VII)	DRSC08151	3.81e7	3.74e7	2.17e7	1.56e7	inactive
39	BtbVII (BTB-protein-VII)	DRSC08415	2.99e7	2.03e7	2.21e7	9.37e6	inactive
40	GatC + PolG2	DRSC03312	5.06e7		2.23e7		inactive
41	Ugt37A2 (UDP-glycosyltransferase family 37 member A2)	DRSC15861	4.05e7	3.78e7	1.90e7	1.91e7	inactive
42	mRpL2 (mitochondrial ribosomal protein L2)	DRSC10896	3.69e7	5.08e7	1.69e7	2.13e7	inactive
43	tara (taranis)	DRSC17076	3.55e7	5.29e7	1.88e7	8.58e7	inactive
44	tara (taranis)	DRSC23014	3.90e7	3.40e7	1.86e7	1.58e7	inactive
45	l(1)G0004 (lethal (1) G0004)	DRSC20486	2.03e7	2.24e7	1.14e7	1.28e7	inactive
46	sub (subito)	DRSC06125	3.02e7	2.18e7	1.45e7	1.04e7	inactive
47	Atg17 (Autophagy-related 17)	DRSC12221	4.42e7	4.12e7	2.15e7	1.95e7	inactive
48	CG42717	DRSC09411	4.14e7	3.61e7	1.88e7	1.83e7	inactive
49	tea (telomere ends associated)	DRSC06110	2.68e7	3.20e7	1.59e7	1.65e7	inactive
50	tea (telomere ends associated)	DRSC06236	2.83e7	2.29e7	1.33e7	1.30e7	inactive
51	Non3 (Novel nucleolar protein 3)	DRSC16359	3.18e7	3.18e7	1.62e7	1.50e7	inactive
52	CG8750	DRSC11037	3.11e7	4.36e7	1.67e7	1.90e7	inactive
53	CG17734	DRSC15256	3.43e7	4.22e7	1.72e7	1.98e7	inactive
54	CG4968	DRSC02794	5.45e7	3.89e7	2.25e7	1.57e7	inactive
55	Mgat4b	DRSC10256	4.01e7	6.18e7	2.08e7	2.36e7	inactive
56	lncRNA:CR31386 (long non-coding RNA:CR31386)	DRSC22769	5.29e7	3.38e7	2.71e7	1.69e7	inactive
57	lncRNA:CR31386 (long non-coding RNA:CR31386)	DRSC23186	4.53e7	4.15e7	2.40e7	1.76e7	inactive
58	CG1314	DRSC20495	4.06e7	4.94e7	1.88e7	1.99e7	inactive

8 successive records from above, quoted:
no.	target	dsRNA	calcium entry signal, replicate 1 (fluorescence units)	calcium entry signal, replicate 2 (fluorescence units)	resting calcium signal, replicate 1 (fluorescence units)	resting calcium signal, replicate 2 (fluorescence units)	Call
12	Vm26Ac (Vitelline membrane 26Aac)	DRSC02329	3.43e7	3.91e7	1.72e7	1.71e7	inactive
13	Tsp66E (Tetraspanin 66E)	DRSC09683	3.28e7	4.90e7	1.64e7	2.05e7	inactive
14	CG15711	DRSC06582	5.47e7	4.35e7	2.24e7	2.16e7	inactive
15	CG10208	DRSC14211	4.99e7	3.62e7	2.19e7	1.65e7	inactive
16	Cpr65Ax2 + Cpr65Ax1	DRSC10341	2.84e7	4.62e7	1.35e7	1.92e7	inactive
17	Cpr65Ax2 + Cpr65Ax1	DRSC10344	2.79e7	4.32e7	1.46e7	1.76e7	inactive
18	MFS14 (Major Facilitator Superfamily Transporter 14)	DRSC06524	4.34e7	3.27e7	1.93e7	1.59e7	inactive
19	CG10126	DRSC14191	3.53e7	4.78e7	1.57e7	2.10e7	inactive
